Measurements reported in patent US10674727B2, “Substituted oxadiazoles for combating phytopathogenic fungi” (priority 2015, dated 2020).
Some of these results come from one statement about several compounds together.

How the values were obtained:
Type in all cases: in vivo
[1] = system: Puccinia recondite; experiment: Curative control of brown rust on wheat (glass house trial); conditions: 63 ppm active compound, sprayed after inoculation, wheat seedlings; untreated plants 90%
[2] = system: Phakopsora pachyrhizi; experiment: Curative control of soy bean rust on soy beans (glass house trial); conditions: 32 ppm active compound, sprayed after inoculation, soy bean seedlings; untreated plants 90%
[3] = system: Puccinia recondite; experiment: Preventative control of brown rust on wheat (glass house trial); conditions: 63 ppm active compound, sprayed seven days before inoculation, wheat seedlings; untreated plants 90%

| Compound | diseased leaf area [1] | diseased leaf area [2] | diseased leaf area [3] |
| --- | --- | --- | --- |
| CNC(c1ccc(-c2noc(C(F)(F)F)n2)cc1)C(F)(F)F (stereo not shown) [Ex-1] | at most 2% | at most 5% |  |
| C=CCN(Cc1ccc(-c2noc(C(F)(F)F)n2)cc1)C(C)=O [Ex-4] | at most 2% | at most 5% | at most 12% |
| C=CCN(Cc1ccc(-c2noc(C(F)(F)F)n2)cc1)C(=O)CC [Ex-5] | at most 2% | at most 5% | at most 12% |
| C=CCN(Cc1ccc(-c2noc(C(F)(F)F)n2)cc1)C(=O)C(C)(C)C [Ex-6] |  | at most 5% |  |
| CCC(=O)N(C)Cc1ccc(-c2noc(C(F)(F)F)n2)cc1 [Ex-7] | at most 2% | at most 5% |  |
| CN(Cc1ccc(-c2noc(C(F)(F)F)n2)cc1)C(=O)C(C)(C)C [Ex-8] | at most 2% | at most 5% | at most 12% |
| CCC(=O)N(Cc1ccc(-c2noc(C(F)(F)F)n2)cc1)C(C)C [Ex-9] | at most 2% | at most 5% | at most 12% |
| CC(C)N(Cc1ccc(-c2noc(C(F)(F)F)n2)cc1)C(=O)C(C)(C)C [Ex-10] | at most 2% | at most 5% | at most 12% |
| CCC(CC)C(=O)N(C)Cc1ccc(-c2noc(C(F)(F)F)n2)cc1 [Ex-11] | at most 2% | at most 5% | at most 12% |
| CCCC(=O)N(C)Cc1ccc(-c2noc(C(F)(F)F)n2)cc1 [Ex-12] | at most 2% | at most 5% | at most 12% |
| CC(C)C(=O)N(C)Cc1ccc(-c2noc(C(F)(F)F)n2)cc1 [Ex-13, N,2-dimethyl-N[[4-[5-(trifluoromethyl)-1,2,4-oxadiazol-3-yl]phenyl]methyl]propanamide] | at most 2% | at most 5% | at most 12% |
| CCC(C)C(=O)N(C)Cc1ccc(-c2noc(C(F)(F)F)n2)cc1 (stereo not shown) [Ex-14] | at most 2% | at most 5% | at most 12% |
| CC(=O)NCc1ccc(-c2noc(C(F)(F)F)n2)cc1 [Ex-15] | at most 2% | at most 5% |  |
| CC(=O)N(C)C(C)c1ccc(-c2noc(C(F)(F)F)n2)cc1 (stereo not shown) [Ex-16, N-methyl-N-[1-[4-[5-(trifluoromethyl)-1,2,4-oxadiazol-3-yl]phenyl]ethyl]acetamide] | at most 2% | at most 5% |  |
| CCC(=O)N(C)C(C)c1ccc(-c2noc(C(F)(F)F)n2)cc1 (stereo not shown) [Ex-18] | at most 2% | at most 5% |  |
| CCCC(=O)N(C)C(C)c1ccc(-c2noc(C(F)(F)F)n2)cc1 (stereo not shown) [Ex-19] | at most 2% | at most 5% |  |
| CC(C)C(=O)N(C)C(C)c1ccc(-c2noc(C(F)(F)F)n2)cc1 (stereo not shown) [Ex-21] | at most 2% | at most 5% |  |
| CCC(C)C(=O)N(C)C(C)c1ccc(-c2noc(C(F)(F)F)n2)cc1 (stereo not shown) [Ex-22] |  | at most 5% |  |
| CC(=O)NC(c1ccc(-c2noc(C(F)(F)F)n2)cc1)C(F)(F)F (stereo not shown) [Ex-23] | at most 2% | at most 5% |  |
| CCC(C)C(=O)N(CC)Cc1ccc(-c2noc(C(F)(F)F)n2)cc1 (stereo not shown) [Ex-28] |  | at most 5% |  |
| O=C1CCCN1Cc1ccc(-c2noc(C(F)(F)F)n2)cc1 [Ex-30, 1-[[4-[5-(trifluoromethyl)-1,2,4-oxadiazol-3-yl]phenyl]methyl] pyrrolidin-2-one] |  | at most 5% |  |
| CC1(C)CC(=O)N(Cc2ccc(-c3noc(C(F)(F)F)n3)cc2)C1 [Ex-31] | at most 2% | at most 5% |  |
| CC1CCN(Cc2ccc(-c3noc(C(F)(F)F)n3)cc2)C1=O (stereo not shown) [Ex-32] |  | at most 5% |  |
| CC1(C)CCC(=O)N(Cc2ccc(-c3noc(C(F)(F)F)n3)cc2)C1 [Ex-33] | at most 2% | at most 5% |  |
